Results are given in words; binding and its absence hold for the method and conditions named. In cells and extracts the contact can be indirect. Some binding calls cover weakened binding; strength is not graded here.

The record followed here is publication doi:10.1101/687780.

The assay addresses adenosine A2A receptor (human (endogenous in postmortem ventral striatum)) (UniProt P29274). The experiment in a line: proximity ligation.

In the case of “dopamine D2 receptor (from UniProt P14416 1-443)”, the binding result was “binds”.
